Measured values reported in doi:10.1101/2025.10.30.685510.
These are yes or no findings as the source states them, for the method shown. Binding seen in cells or lysates may run through a third protein. Some entries that bind do so weakly or less than the wild type.

The chains behind the UniProt entries cited, without tags or fusion partners.
UniProt Q2G184: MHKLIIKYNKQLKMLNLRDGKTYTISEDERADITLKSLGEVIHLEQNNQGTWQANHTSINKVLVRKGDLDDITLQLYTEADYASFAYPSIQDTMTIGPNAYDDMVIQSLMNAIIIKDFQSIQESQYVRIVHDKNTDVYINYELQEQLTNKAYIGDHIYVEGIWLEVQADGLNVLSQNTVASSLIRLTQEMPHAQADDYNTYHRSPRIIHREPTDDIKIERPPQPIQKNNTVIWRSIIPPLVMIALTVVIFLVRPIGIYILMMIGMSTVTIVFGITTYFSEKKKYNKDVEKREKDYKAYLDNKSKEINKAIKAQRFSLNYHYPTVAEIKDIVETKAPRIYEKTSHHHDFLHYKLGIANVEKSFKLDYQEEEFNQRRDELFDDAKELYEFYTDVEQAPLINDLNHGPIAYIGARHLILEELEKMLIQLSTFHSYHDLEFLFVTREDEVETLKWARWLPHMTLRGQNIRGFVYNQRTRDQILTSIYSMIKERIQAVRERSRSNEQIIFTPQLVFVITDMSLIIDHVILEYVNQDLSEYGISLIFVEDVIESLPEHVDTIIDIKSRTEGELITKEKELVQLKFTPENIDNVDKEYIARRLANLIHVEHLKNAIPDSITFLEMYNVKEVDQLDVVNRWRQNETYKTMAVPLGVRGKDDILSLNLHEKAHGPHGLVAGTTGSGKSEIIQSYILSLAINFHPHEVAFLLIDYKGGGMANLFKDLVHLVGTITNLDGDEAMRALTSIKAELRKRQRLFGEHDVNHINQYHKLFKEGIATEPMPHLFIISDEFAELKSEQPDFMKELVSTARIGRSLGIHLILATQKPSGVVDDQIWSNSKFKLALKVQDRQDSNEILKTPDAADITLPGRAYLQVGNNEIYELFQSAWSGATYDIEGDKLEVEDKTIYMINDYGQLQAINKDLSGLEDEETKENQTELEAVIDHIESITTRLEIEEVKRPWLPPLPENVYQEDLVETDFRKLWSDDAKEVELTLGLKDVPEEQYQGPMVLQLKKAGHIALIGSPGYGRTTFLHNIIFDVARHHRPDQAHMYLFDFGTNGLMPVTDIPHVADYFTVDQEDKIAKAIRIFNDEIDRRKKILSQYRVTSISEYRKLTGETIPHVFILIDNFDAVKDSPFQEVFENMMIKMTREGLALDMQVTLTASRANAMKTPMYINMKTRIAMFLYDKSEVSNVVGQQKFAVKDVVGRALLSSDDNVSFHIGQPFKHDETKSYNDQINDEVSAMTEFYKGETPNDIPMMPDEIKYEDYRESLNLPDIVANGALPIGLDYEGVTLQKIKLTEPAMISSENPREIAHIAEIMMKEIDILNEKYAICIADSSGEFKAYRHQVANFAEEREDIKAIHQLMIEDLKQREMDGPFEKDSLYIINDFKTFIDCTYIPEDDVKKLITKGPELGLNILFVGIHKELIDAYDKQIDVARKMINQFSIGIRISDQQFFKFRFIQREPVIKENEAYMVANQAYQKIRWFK
UniProt Q2G189: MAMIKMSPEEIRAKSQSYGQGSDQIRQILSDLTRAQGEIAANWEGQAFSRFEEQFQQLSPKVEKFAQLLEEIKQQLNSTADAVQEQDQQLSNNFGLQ
UniProt Q2G188: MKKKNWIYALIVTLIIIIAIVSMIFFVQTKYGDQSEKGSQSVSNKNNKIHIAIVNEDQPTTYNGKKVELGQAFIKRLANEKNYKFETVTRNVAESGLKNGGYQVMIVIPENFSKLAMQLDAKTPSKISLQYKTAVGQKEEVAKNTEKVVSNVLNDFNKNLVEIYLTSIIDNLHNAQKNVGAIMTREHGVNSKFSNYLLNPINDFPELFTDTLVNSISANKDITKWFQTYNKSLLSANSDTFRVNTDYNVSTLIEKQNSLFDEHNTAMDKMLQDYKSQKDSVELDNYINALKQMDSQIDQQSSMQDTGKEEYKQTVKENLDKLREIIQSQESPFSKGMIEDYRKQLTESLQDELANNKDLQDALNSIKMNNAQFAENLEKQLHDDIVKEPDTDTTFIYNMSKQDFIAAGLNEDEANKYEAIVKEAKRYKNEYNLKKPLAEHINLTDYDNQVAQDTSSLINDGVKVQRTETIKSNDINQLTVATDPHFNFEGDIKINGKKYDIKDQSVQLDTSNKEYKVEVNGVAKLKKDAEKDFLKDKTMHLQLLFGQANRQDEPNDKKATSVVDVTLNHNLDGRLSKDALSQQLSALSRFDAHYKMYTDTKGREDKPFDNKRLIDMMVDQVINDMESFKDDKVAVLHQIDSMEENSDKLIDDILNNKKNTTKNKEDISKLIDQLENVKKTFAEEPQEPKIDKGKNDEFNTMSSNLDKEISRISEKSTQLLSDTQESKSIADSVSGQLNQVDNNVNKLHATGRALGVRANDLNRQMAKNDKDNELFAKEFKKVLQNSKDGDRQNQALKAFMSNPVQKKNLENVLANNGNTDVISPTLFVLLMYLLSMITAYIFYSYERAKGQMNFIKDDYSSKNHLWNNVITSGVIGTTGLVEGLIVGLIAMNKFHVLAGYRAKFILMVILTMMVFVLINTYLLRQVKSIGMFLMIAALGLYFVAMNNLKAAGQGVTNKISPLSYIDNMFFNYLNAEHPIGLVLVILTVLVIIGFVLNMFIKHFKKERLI
UniProt Q2G185: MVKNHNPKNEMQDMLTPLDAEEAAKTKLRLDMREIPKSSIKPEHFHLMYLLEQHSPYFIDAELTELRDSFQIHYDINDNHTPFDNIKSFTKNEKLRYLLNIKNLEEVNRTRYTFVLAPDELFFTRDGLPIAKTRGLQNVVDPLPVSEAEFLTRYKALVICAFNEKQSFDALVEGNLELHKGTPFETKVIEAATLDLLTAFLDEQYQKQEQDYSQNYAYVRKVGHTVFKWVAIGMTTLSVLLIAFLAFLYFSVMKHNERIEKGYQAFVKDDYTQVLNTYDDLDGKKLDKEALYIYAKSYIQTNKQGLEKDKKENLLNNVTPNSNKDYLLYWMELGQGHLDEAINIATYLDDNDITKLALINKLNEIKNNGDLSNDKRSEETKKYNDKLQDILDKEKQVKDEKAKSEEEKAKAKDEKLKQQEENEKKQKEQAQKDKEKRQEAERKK

Target: EssC with a C-terminal Twin-Strep tag (Staphylococcus aureus) (UniProt Q2G184)
Assay: pull-down

| Substance | binding |
| --- | --- |
| EsxA (from UniProt Q2G189 1-97) | binds |
| EsaA (from UniProt Q2G188 1-1009) | binds |
| EssB (from UniProt Q2G185 1-444) | binds |
